For the assay, the target named is cynomolgus CD33 (cynomolgus). Briefly: flow cytometry on cells expressing cyno CD33. Background: Flow cytometry measures light scatter and fluorescence of single cells or particles in a stream.

No constants are given. Whether binding was seen depends on the method and setting. A result given as binding can be weak or reduced; the word gives no strength.

B1: h2H12 antibody (2H12 HILG) (antibody, V domains shown)
VH: QVQLVQSGAEVKKPGASVKVSCKASGYTFTNYDINWVRQAPGQGLEWIGWIYPGDGSTKYNEKFKAKATLTADTSTSTAYMELRSLRSDDTAVYYCASGYEDAMDYWGQGTTVTVSS
VL: DIQMTQSPSSLSASVGDRVTINCKASQDINSYLSWFQQKPGKAPKTLIYRANRLVDGVPSRFSGSGSGQDYTLTISSLQPEDFATYYCLQYDEFPLTFGGGTKVEIK
As to B1, the binding entry is “binds”.

Values taken from patent US20150147316A1.
